# Source: the supplement of paper PMC8728848
# The other results are listed elsewhere or left out.
# B1: SUN4 (Saccharomyces cerevisiae), P53616 (protein)
# chain: MGSSHHHHHHSSGLVPRGSHNGSIYGDLADFSGPYEKFEDGTIPCGQFPSGQGVIPISWLDEGGWSGVENTDTSTGGSCKEGSYCSYACQPGMSKTQWPSDQPSDGRSIGGLLCKDGYLYRSNTDTDYLCEWGVDAAYVVSELSNDVAICRTDYPGTENMVIPTYVQAGDSLPLTVVDQDTYYTWQGLKTSAQYYVNNAGISVEDACVWGSSSSGVGNWAPLNFGAGSSDGVAYLSLIPNPNNGNALNFNVKIVAADDSSTVNGECIYENGSFSGGSDGCTVSVTAGKAKFVLYN
# Assays:
# Experiment in all cases: glycan array binding signal (z-score within array); higher = stronger binding
# Conditions in all cases: glycan notation: IUPAC condensed, linker removed
# Glc(b1-4)Glc = target: Glc(b1-4)Glc
# Outline: (§1)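 Glycan array data were curated from 3228 arrays in the Consortium for Functional Glycomics database and kept only where the protein sequence was available. Glycan names were converted to IUPAC-condensed notation, and columns mapping to the same glycan were averaged. The binding signal is a within-array Z-score, averaged across arrays of the same protein sequence at different concentrations or buffers and across linkers. Negative Z-scores can be read as non-binding.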
# Glc(b1-6)Glc = target: Glc(b1-6)Glc
# Outline: as §1
# GlcA(b1-3)Gal = target: GlcA(b1-3)Gal
# Outline: as §1
# GlcA(b1-3)GlcNAc = target: GlcA(b1-3)GlcNAc
# Outline: as §1
# GlcA(b1-6)Gal = target: GlcA(b1-6)Gal
# Outline: as §1
# [1] = target: GlcA3S(b1-3)Gal(b1-4)GlcNAc(b1-2)Man
# Outline: as §1
# [2] = target: GlcA3S(b1-3)Gal(b1-4)GlcNAc(b1-3)Gal(b1-4)Glc
# Outline: as §1
# [3] = target: GlcNAc(a1-3)Gal(b1-4)GlcNAc
# Outline: as §1
# [4] = target: GlcNAc(a1-4)Gal(b1-3)GlcNAc
# Outline: as §1
# [5] = target: GlcNAc(a1-4)Gal(b1-4)GalNAc
# Outline: as §1
# [6] = target: GlcNAc(a1-4)Gal(b1-4)GlcNAc
# Outline: as §1
# [7] = target: GlcNAc(a1-4)Gal(b1-4)GlcNAc(b1-3)Gal(b1-4)Glc
# Outline: as §1
# [8] = target: GlcNAc(a1-4)Gal(b1-4)GlcNAc(b1-3)Gal(b1-4)GlcNAc
# Outline: as §1
# [9] = target: GlcNAc(a1-4)Gal(b1-4)GlcNAc(b1-3)Gal(b1-4)GlcNAc(b1-3)Gal(b1-4)GlcNAc
# Outline: as §1
# [10] = target: GlcNAc(a1-4)Gal(b1-4)GlcNAc(b1-3)Gal(b1-4)[Fuc(a1-3)]GlcNAc(b1-3)Gal(b1-4)[Fuc(a1-3)]GlcNAc
# Outline: as §1
# [11] = target: GlcNAc(a1-6)Gal(b1-4)GlcNAc
# Outline: as §1
# [12] = target: GlcNAc(b1-2)Gal(b1-3)GalNAc
# Outline: as §1
# [13] = target: GlcNAc(b1-2)Man(a1-3)[GlcNAc(b1-2)Man(a1-6)]Man(b1-4)GlcNAc(b1-4)GlcNAc
# Outline: as §1
# [14] = target: GlcNAc(b1-2)Man(a1-3)[GlcNAc(b1-2)Man(a1-6)]Man(b1-4)GlcNAc(b1-4)[Fuc(a1-6)]GlcNAc
# Outline: as §1
# [15] = target: GlcNAc(b1-2)Man(a1-3)[GlcNAc(b1-4)][GlcNAc(b1-2)Man(a1-6)]Man(b1-4)GlcNAc(b1-4)GlcNAc
# Outline: as §1
# [16] = target: GlcNAc(b1-2)Man(a1-3)[GlcNAc(b1-4)][GlcNAc(b1-2)Man(a1-6)]Man(b1-4)GlcNAc(b1-4)[Fuc(a1-6)]GlcNAc
# Outline: as §1
# [17] = target: GlcNAc(b1-2)[GlcNAc(b1-4)]Man(a1-3)[GlcNAc(b1-2)Man(a1-6)]Man(b1-4)GlcNAc(b1-4)GlcNAc
# Outline: as §1
# [18] = target: GlcNAc(b1-2)[GlcNAc(b1-4)]Man(a1-3)[GlcNAc(b1-4)][GlcNAc(b1-2)Man(a1-6)]Man(b1-4)GlcNAc(b1-4)GlcNAc
# Outline: as §1
# [19] = target: GlcNAc(b1-2)[GlcNAc(b1-4)]Man(a1-3)[GlcNAc(b1-4)][GlcNAc(b1-2)[GlcNAc(b1-6)]Man(a1-6)]Man(b1-4)GlcNAc(b1-4)GlcNAc
# Outline: as §1
# [20] = target: GlcNAc(b1-2)[GlcNAc(b1-4)]Man(a1-3)[GlcNAc(b1-4)][GlcNAc(b1-2)[GlcNAc(b1-6)]Man(a1-6)]Man(b1-4)GlcNAc(b1-4)[Fuc(a1-6)]GlcNAc
# Outline: as §1
# [21] = target: GlcNAc(b1-2)[GlcNAc(b1-6)]Man(a1-6)[GlcNAc(b1-2)Man(a1-3)]Man(b1-4)GlcNAc(b1-4)GlcNAc
# Outline: as §1
# [22] = target: GlcNAc(b1-2)[GlcNAc(b1-6)]Man(a1-6)[GlcNAc(b1-2)Man(a1-3)]Man(b1-4)GlcNAc(b1-4)[Fuc(a1-6)]GlcNAc
# Outline: as §1
# [23] = target: GlcNAc(b1-2)[GlcNAc(b1-6)]Man(a1-6)[GlcNAc(b1-4)][GlcNAc(b1-2)Man(a1-3)]Man(b1-4)GlcNAc(b1-4)GlcNAc
# Outline: as §1
# GlcNAc(b1-3)Fuc = target: GlcNAc(b1-3)Fuc
# Outline: as §1
# GlcNAc(b1-3)Gal = target: GlcNAc(b1-3)Gal
# Outline: as §1
# [24] = target: GlcNAc(b1-3)Gal(b1-3)GalNAc
# Outline: as §1
# GlcNAc(b1-3)Gal(b1-4)Glc = target: GlcNAc(b1-3)Gal(b1-4)Glc
# Outline: as §1
# [25] = target: GlcNAc(b1-3)Gal(b1-4)GlcNAc
# Outline: as §1
# [26] = target: GlcNAc(b1-3)Gal(b1-4)GlcNAc(b1-2)Man(a1-3)[GlcNAc(b1-3)Gal(b1-4)GlcNAc(b1-2)Man(a1-6)]Man(b1-4)GlcNAc(b1-4)GlcNAc
# Outline: as §1
# [27] = target: GlcNAc(b1-3)Gal(b1-4)GlcNAc(b1-2)Man(a1-3)[GlcNAc(b1-3)Gal(b1-4)GlcNAc(b1-2)Man(a1-6)]Man(b1-4)GlcNAc(b1-4)[Fuc(a1-6)]GlcNAc
# Outline: as §1
# [28] = target: GlcNAc(b1-3)Gal(b1-4)GlcNAc(b1-2)[GlcNAc(b1-3)Gal(b1-4)GlcNAc(b1-6)]Man(a1-6)[GlcNAc(b1-3)Gal(b1-4)GlcNAc(b1-2)Man(a1-3)]Man(b1-4)GlcNAc(b1-4)GlcNAc
# Outline: as §1
# [29] = target: GlcNAc(b1-3)Gal(b1-4)GlcNAc(b1-3)Gal(b1-4)GlcNAc
# Outline: as §1
binder,measurement,setting,value
B1,glycan array binding signal (z-score),Glc(b1-4)Glc,-0.935
same,glycan array binding signal (z-score),Glc(b1-6)Glc,-0.514
same,glycan array binding signal (z-score),GlcA(b1-3)Gal,-0.039
same,glycan array binding signal (z-score),GlcA(b1-3)GlcNAc,-0.127
same,glycan array binding signal (z-score),GlcA(b1-6)Gal,-0.052
same,glycan array binding signal (z-score),[1],0.305
same,glycan array binding signal (z-score),[2],0.251
same,glycan array binding signal (z-score),[3],0.414
same,glycan array binding signal (z-score),[4],0.416
same,glycan array binding signal (z-score),[5],0.779
same,glycan array binding signal (z-score),[6],-0.265
same,glycan array binding signal (z-score),[7],0.55
same,glycan array binding signal (z-score),[8],0.697
same,glycan array binding signal (z-score),[9],0.098
same,glycan array binding signal (z-score),[10],1.28
same,glycan array binding signal (z-score),[11],-1.15
same,glycan array binding signal (z-score),[12],0.963
same,glycan array binding signal (z-score),[13],0.264
same,glycan array binding signal (z-score),[14],-0.619
same,glycan array binding signal (z-score),[15],-1.38
same,glycan array binding signal (z-score),[16],-0.555
same,glycan array binding signal (z-score),[17],0.022
same,glycan array binding signal (z-score),[18],-0.295
same,glycan array binding signal (z-score),[19],-0.107
same,glycan array binding signal (z-score),[20],-0.237
same,glycan array binding signal (z-score),[21],-0.666
same,glycan array binding signal (z-score),[22],0.117
same,glycan array binding signal (z-score),[23],-0.641
same,glycan array binding signal (z-score),GlcNAc(b1-3)Fuc,-0.064
same,glycan array binding signal (z-score),GlcNAc(b1-3)Gal,-0.944
same,glycan array binding signal (z-score),[24],0.821
same,glycan array binding signal (z-score),GlcNAc(b1-3)Gal(b1-4)Glc,0.018
same,glycan array binding signal (z-score),[25],0.156
same,glycan array binding signal (z-score),[26],-0.456
same,glycan array binding signal (z-score),[27],1.07
same,glycan array binding signal (z-score),[28],0.82
same,glycan array binding signal (z-score),[29],0.244

# Quoted at random: 3 entries already listed.
binder,measurement,setting,value
B1,glycan array binding signal (z-score),[13],0.264
same,glycan array binding signal (z-score),GlcA(b1-3)GlcNAc,-0.127
same,glycan array binding signal (z-score),[6],-0.265
